In USRE40300E1, “Carbon dioxide enhancement of inhalation therapy” (priority 1999, dated 2008):
At least one read-out could not be matched to a standard name with certainty.

Test: Tissue distribution and pharmacokinetics of PTX after PTX-DLPC aerosol generated with normal or 5% CO2-enriched air
Type: in vivo, mice
Conditions: end of treatment, either air source

SMILES: CC(=O)O[C@H]1C(=O)[C@@]2(C)[C@H]([C@H](OC(=O)c3ccccc3)[C@]3(O)C[C@H](OC(=O)[C@H](O)[C@@H](NC(=O)c4ccccc4)c4ccccc4)C(C)=C1C3(C)C)[C@]1(OC(C)=O)CO[C@@H]1C[C@@H]2O [paclitaxel]
- time of pulmonary Cmax: 30 min
